Assay results reported in the supplement of paper PMC12889115.
The list shows a part of the results. Values are raw readings; no control value is given beside them.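 First-pass screen: polymyxin B was added at a level that permeabilizes the Salmonella outer membrane while sparing the inner membrane. DMSO wells, with and without polymyxin B, defined maximum growth. Because plates differed from one another, each plate's data were ranked separately and the compounds with the lowest OD600 were carried forward as hits.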

Tested on: Salmonella enterica serovar Typhimurium SL1344
Experiment: bacterial growth OD600 after 18 h with compound and polymyxin B; higher = more bacterial growth (less inhibition)
Settings: 50 µM, Mueller-Hinton broth

Row | Compound | bacterial growth OD600 (polymyxin B 0.75 µg/mL) | bacterial growth OD600 (polymyxin B 1 µg/mL)
1 | Cc1cccnc1-c1cccc2c1OC(CNC(=O)C1CC1)C2 (configuration not stated) | 0.844 | –
2 | O=C1CC(NS(=O)(=O)N2CCCC2)CN1CCc1ccccc1 (configuration not stated) | – | 0.933
3 | CN(CCOc1ccccc1)C(=O)c1cc(COc2c(F)cccc2F)on1 | – | 0.741
4 | C=C(C)CNC(=O)c1cc(COc2cc(C)c(Cl)c(C)c2)on1 | 0.111 | –
5 | COc1cc(CNC(=O)C2CCCN(c3nc(C)c4ccc(S(C)(=O)=O)cc4n3)C2)cc(OC)c1 (configuration not stated) | 0.926 | –
6 | COCc1ccc(CN2CCCC(C(=O)Nc3ccccc3-c3ccc(OC)cc3)C2)o1 (configuration not stated) | – | 0.015
7 | CCOC(=O)C1(CCOc2ccccc2)CCCN(C2CCOCC2)C1 (configuration not stated) | – | 0.41
8 | O=C(NCC1CCCN(C2CCSCC2)C1)c1cccc(C(F)(F)F)c1 (configuration not stated) | 0.879 | –
9 | CC(C)n1cc(C(=O)NCC2CCCCC2)c(=O)c(C(=O)N(C)Cc2cccs2)c1 | 0.895 | –
10 | COC(=O)[C@@H](NC(=O)c1cc(COc2ccc(C)c(C)c2)on1)C(C)C | 0.578 | –
11 | O=C(Cn1cccn1)N1CCCC(CCc2c(F)cccc2F)C1 (configuration not stated) | 0.776 | –
12 | Cn1nccc1C(=O)NC1CCCc2nc(-c3ccccc3)ncc21 (configuration not stated) | – | 0.928
13 | Cc1oc(-c2ccc(NC(=O)Cc3ccccc3)cc2)nc1CNC(=O)c1cc(-c2ccccc2)no1 | 0.904 | –
14 | CCOc1cccc(CN2CCC(Oc3cc(OC)ccc3C(=O)NCCOC)CC2)c1 | – | 1.02
15 | COCC(=O)Nc1cc(C(=O)NCCCc2cccnc2)cc2ncn(CCc3ccccc3)c12 | 0.986 | –
16 | COc1ccc(-c2n[nH]cc2CNCCCOc2cccnc2)cc1F | – | 0.838

Row | Compound | bacterial growth OD600 (polymyxin B 0.75 µg/mL) | bacterial growth OD600 (polymyxin B 1 µg/mL)
17 | COc1ccc(CN(C)C(=O)c2cn(Cc3c(F)cccc3F)nn2)cc1OC | – | 0.929
18 | c1cc(CNCc2ccc3[nH]c4c(c3c2)CCCCCC4)ccn1 | 0.877 | –
19 | CC(C)(C)CN1CCC(Oc2cc(Cl)ccc2C(=O)N2CCCCC2)CC1 | – | 0.996
20 | O=C1N(Cc2cccc(F)c2F)CCCC1(O)CN1CCCCC1 (configuration not stated) | – | 0.928
21 | O=C(NCc1cccnc1)c1ccc(N2CCC(NCC3CCCN(c4ncccn4)C3)CC2)cc1 (configuration not stated) | 0.847 | –
22 | CN(Cc1nccn1C)C(=O)CC1C(=O)NCCN1CCCc1ccccc1 (configuration not stated) | – | 0.969
23 | COc1ccc(F)c(CC2(CCC(=O)N3CCN(c4nonc4C)CC3)CCC(=O)N2)c1 (configuration not stated) | 0.869 | –
24 | COc1cc(OC)c(CN2CCOc3ccc(C(O)CCc4ccccc4)cc3C2)c(OC)c1 (configuration not stated) | 0.716 | –
25 | COCCNC(=O)c1ccc(OC)cc1OC1CCN(Cc2cccc(SC)c2)CC1 | – | 0.873
26 | COc1ccc(Cc2noc(-c3ccc(N4CCC(OC)CC4)nc3)n2)cc1 | – | 0.913
27 | COc1ccc(CN2C[C@@H]3C[C@@H](c4ccc(-c5ccco5)cc4)N4CCC[C@@]34C2=O)cc1 | 0.807 | –
28 | COCCN1CCCC(O)(CNC2Cc3ccccc3C2)C1=O (configuration not stated) | – | 0.986
29 | Cc1cc(C)n(-c2ccc(NC(=O)C3CCN(C(=O)c4cncs4)CC3)cc2)n1 | – | 0.859
30 | COc1ccc(Cn2cc(C(=O)N(Cc3nccn3C)C(C)C)nn2)cc1 | – | 1.08
31 | Cc1nc2ccccc2n1Cc1cc(C(=O)N2C[C@@H](C)O[C@@H](C)C2)no1 | – | 0.895
32 | COC(=O)c1ccc(N2CCN(C(=O)Cn3nnnc3CN(C)C(C)C)CC2)cc1 | 0.864 | –

Rewritten comma-delimited: entries from further up.
Row,Compound,bacterial growth OD600 (polymyxin B 0.75 µg/mL),bacterial growth OD600 (polymyxin B 1 µg/mL)
13,Cc1oc(-c2ccc(NC(=O)Cc3ccccc3)cc2)nc1CNC(=O)c1cc(-c2ccccc2)no1,0.904,–
15,COCC(=O)Nc1cc(C(=O)NCCCc2cccnc2)cc2ncn(CCc3ccccc3)c12,0.986,–
